Measured values reported in PubChem BioAssay AID624297 (National Center for Advancing Translational Sciences (NCATS), 2012).
About 6,200 (1.8%) of roughly 340,000 compounds were called active. The shares of active, inactive and inconclusive entries below differ from those in the screen. Calls come from the whole dose curve; as a rule, active = well fitted activation curve with a large enough effect; inconclusive = small, poorly fitted or top-dose-only effect; inactive = no such curve, though single readings can be large or run the other way. Where the call is inconclusive, the potency comes from a doubtful curve fit.

test: A quantitative high throughput screen for small molecules that induce DNA re-replication in SW480 colon adenocarcinoma cells.; note: nearly all actives have a fitted effect of over 55% in size; for re-replication activation: % of control where 0% means no effect; conditions: Hoechst DNA content imaging, 48 h; re-replication activation: at 46.1 µM (top of the series)
Description: H Molecular Libraries Probe Production Network [MLPCN] NIH Chemical Genomics Center [NCGC] MLPCN Grant: Fast Track K99 CA136555 Assay Provider: Melvin DePamphilis, NICHD, NIH Assay Overview Eukaryotic cells normally restrict genome duplication to once per cell division. When this process is aberrant, DNA re-replication occurs when cells reinitiate DNA replication before the first round of replication is complete. DNA re-replication induces the DNA damage response, arrests cell proliferation, and triggers apoptosis. The cell cycle components cyclin A, Cdt-1, Cdc6 and geminin are critical regulators of this process and their misregulation results in DNA re-replication in normal and cancer cells. To identify compounds that induce re-replication in normal cells, an image-based assay was used to measure DNA content of nuclei, as detected by the fluorescent DNA binding dye, Hoechst. Cell nuclei were imaged by a fluorescence scanning plate imager and compounds that induce DNA re-replication were identified by the increase of nuclei with elevated fluorescence intensity
For screening, 250 cells in 5 uL/well were dispensed into black clear 1536-well plates (Aurora) using a solenoid-based dispenser. Following transfer of 23 nL compound or DMSO vehicle by a pin tool, the plates were incubated 48 hr at 37 C and 5% CO2. After addition of 1 uL/well Hoescht stain, the plates were incubated 40 min at 37 C, 5% CO2 and total intensity of fluorescent objects (nuclei) were enumerated by an Acumen Explorer Ex3 (TTP LabTech) fluorescence scanning plate imager (405 nm excitation, 500-530 nm emission). Keywords: NIH Roadmap, MLPCN, MLI, MLSMR, qHTS, NCGC, DNA replication, cancer
Potency is the fitted concentration of half-maximal effect.

Compound	Potency	re-replication activation
C/C(=N\NC(=O)C1CC1c1ccccc1)c1cccc([N+](=O)[O-])c1 (configuration not stated)	inconclusive: 23.1 µM [activator, single point]	–
CC(C)Cc1nnc(NC(=O)Cc2ccccc2[N+](=O)[O-])s1	–	inactive: -2.72%
CN(C)CCCN(C(=O)c1sc2ccccc2c1Cl)c1nc2ccc(F)cc2s1	inconclusive: 8.2 µM [activator, partial curve, poor fit]	–
N#C/C(=C\c1ccc(F)cc1)C(=O)Nc1ccccn1	active: 4.11 µM	–
CCN1CCN(c2oc(-c3ccccc3C)nc2S(=O)(=O)c2ccccc2)CC1	–	inactive: -5.14%
COc1ccc(NC(=O)CCSc2nc(C)cs2)cc1	–	inactive: -1.72%
O=C(Nc1cccc(Cl)c1)Nc1nnc(CSCCOc2ccc(Cl)cc2)s1	inconclusive: 29.1 µM [activator, partial curve, poor fit]	–
Cc1ccc2nc(N(CCN(C)C)C(=O)/C=C/c3cccs3)sc2c1	inconclusive: 22.4 µM [activator, single point]	–
CCN1CCN(Cc2ccc(OC)c(OCc3ccccc3)c2)CC1	–	inactive: -1.66%
CSc1ccc(S(=O)(=O)N2CCC(C(=O)NCCc3ccccc3)CC2)cc1	inconclusive: 5.8 µM [activator, single point]	–
CN(C)C(CNC(=O)c1cccc(S(=O)(=O)Nc2ccc(Br)cc2)c1)c1ccco1 (configuration not stated)	inconclusive: 0.13 µM [activator, full curve, poor fit]	–
CC(=O)Nc1ccc(OC(=O)Cc2ccc(Cl)cc2)cc1	inconclusive: 29.1 µM [activator, single point]	–
CC(Oc1ccc([N+](=O)[O-])cc1)C(=O)NCC1CCCO1 (configuration not stated)	inconclusive: 3.26 µM [activator, single point]	–
COc1ccc(S(=O)(=O)N2CCC(C(=O)NCC(=O)Nc3c(C)cccc3C)CC2)cc1OC	inconclusive: 0.13 µM [activator, full curve, poor fit]	–
CCc1ccc(NC(=S)NC(=O)CC(C)C)cc1	–	inactive: 10.4%
NC(=S)Nc1cccc2cn[nH]c12	–	inactive: -1.66%
CCOc1cc(NC(=O)c2cccs2)c(OCC)cc1NC(=O)c1ccccn1	inconclusive: 3.66 µM [activator, full curve, poor fit]	–
CCN1CCN(c2ccc(NC(=O)c3ccc4c(c3)OCCO4)cc2C)CC1	–	inactive: -0.785%
Cc1c(NC(=O)C2CC(c3cccc(Br)c3)=NO2)c(=O)n(-c2ccccc2)n1C (configuration not stated)	inconclusive: 29.1 µM [activator, single point]	–
O=C(CC(Nc1ccccc1Cl)C(=O)O)c1ccccc1 (configuration not stated)	inconclusive: 29.1 µM [activator, single point]	–
CN(C)S(=O)(=O)c1cccc(C(=O)Nc2ccc(N3CCOCC3)cc2)c1	inconclusive: 11.6 µM [activator, single point]	–
Cc1ccc(Cl)cc1N(C)C(=O)Cn1ncc2c([nH]c3ccccc32)c1=O	active: 20.6 µM	–
O=C(O)CCSc1nc2ccccc2s1	–	inactive: 1.13%
O=C1OC(Nc2ccc(F)cc2F)c2ccccc21 (configuration not stated)	–	inactive: -1.56%

A different layout for part of the listing above:
Compound,Potency,re-replication activation
C/C(=N\NC(=O)C1CC1c1ccccc1)c1cccc([N+](=O)[O-])c1 (configuration not stated),"inconclusive: 23.1 µM [activator, single point]",–
CN(C)CCCN(C(=O)c1sc2ccccc2c1Cl)c1nc2ccc(F)cc2s1,"inconclusive: 8.2 µM [activator, partial curve, poor fit]",–
N#C/C(=C\c1ccc(F)cc1)C(=O)Nc1ccccn1,active: 4.11 µM,–
Cc1ccc2nc(N(CCN(C)C)C(=O)/C=C/c3cccs3)sc2c1,"inconclusive: 22.4 µM [activator, single point]",–
CSc1ccc(S(=O)(=O)N2CCC(C(=O)NCCc3ccccc3)CC2)cc1,"inconclusive: 5.8 µM [activator, single point]",–
CN(C)C(CNC(=O)c1cccc(S(=O)(=O)Nc2ccc(Br)cc2)c1)c1ccco1 (configuration not stated),"inconclusive: 0.13 µM [activator, full curve, poor fit]",–
CC(=O)Nc1ccc(OC(=O)Cc2ccc(Cl)cc2)cc1,"inconclusive: 29.1 µM [activator, single point]",–
CC(Oc1ccc([N+](=O)[O-])cc1)C(=O)NCC1CCCO1 (configuration not stated),"inconclusive: 3.26 µM [activator, single point]",–
CCc1ccc(NC(=S)NC(=O)CC(C)C)cc1,–,inactive: 10.4%
NC(=S)Nc1cccc2cn[nH]c12,–,inactive: -1.66%
CCOc1cc(NC(=O)c2cccs2)c(OCC)cc1NC(=O)c1ccccn1,"inconclusive: 3.66 µM [activator, full curve, poor fit]",–
Cc1c(NC(=O)C2CC(c3cccc(Br)c3)=NO2)c(=O)n(-c2ccccc2)n1C (configuration not stated),"inconclusive: 29.1 µM [activator, single point]",–
O=C(O)CCSc1nc2ccccc2s1,–,inactive: 1.13%

Continued.

Compound	Potency	re-replication activation
COc1ccc(N(CC(=O)N2CCc3ccccc3C2)S(C)(=O)=O)cc1Cl	–	inactive: 6.75%
Cc1ccc(N2CC(=O)N(NC(=O)c3sc4nc(C)cc(C)c4c3N)CC2=O)cc1	inconclusive: 29.1 µM [activator, single point]	–
CCOc1ccc(NC(=O)CCN2C(=O)c3ccccc3C2=O)cc1	inconclusive: 0.13 µM [activator, partial curve, poor fit]	–
Cc1c(O)ccc(/C=N/Nc2nc(-c3cccnc3)nc3ccccc23)c1O	inconclusive: 23.1 µM [activator, single point]	–
O=C(O)c1cccc(-n2c(/C=C/c3ccc([N+](=O)[O-])cc3)nc3ccccc3c2=O)c1	inconclusive: 0.731 µM [activator, full curve, poor fit]	–
O=C(Nc1ccc(S(=O)(=O)N2CCCC2)cc1)C1CC(=O)N(CCc2ccc(F)cc2)C1 (configuration not stated)	–	inactive: -0.42%
CCN(Cc1cnn(C)c1)Cc1nc(C2(c3ccc(C)cc3)CCCC2)no1	–	inactive: -1.6%
O=c1[nH]c(CSc2cccc[n+]2[O-])nc2ccccc12	inconclusive: 20.6 µM [activator, single point]	–
Cc1cn(C2OC(COC(=O)c3ccccc3)C(OC(=O)c3ccccc3)C2OC(=O)c2ccccc2)c(=O)[nH]c1=O (configuration not stated)	inconclusive: 20.6 µM [activator, single point]	–
O=[N+]([O-])c1ccc(C[n+]2cccc3c4ccccc4ccc32)cc1	inconclusive: 0.651 µM [activator, partial curve, poor fit]	–
CC(C)CNS(=O)(=O)c1ccc(CCC(=O)NC2CCCC2)cc1	–	inactive: -61.4%
COc1ccc(C2c3c4c(n(C)c3CCN2C)CCN(C)C4c2ccc(OC)cc2)cc1 (configuration not stated)	inconclusive: 32.6 µM [activator, partial curve, poor fit]	–
CC(=O)c1ccc(N2CCN(C(=O)C3CCN(S(=O)(=O)c4cccs4)CC3)CC2)cc1	–	inactive: -3.49%
Cc1ccc(CNC(=O)c2ccc(N3CCC4(CC3)CC(c3ccccc3)=NO4)c([N+](=O)[O-])c2)cc1	inconclusive: 29.1 µM [activator, single point]	–
O=C(Nc1cc(Cl)ccc1-n1cncn1)c1ccc([N+](=O)[O-])o1	active: 20.6 µM	–
CCCn1nc(NC(=O)c2cccs2)c2cc3ccccc3nc21	active: 14.6 µM	–
Cc1ccc(/C=C/C(=O)O)cc1S(=O)(=O)NCc1ccco1	–	inactive: -14.8%
COc1ccccc1N1C(=O)CC(Sc2n[nH]c(-c3cccc(C)c3)n2)C1=O (configuration not stated)	inconclusive: 29.1 µM [activator, single point]	–
NC(=O)c1ccccc1NC(=O)/C=C/c1ccccc1	–	inactive: 0.518%
CC(/C=C/c1ccc2c(c1)OCO2)=N\NC(=O)C(O)c1ccccc1 (configuration not stated)	–	inactive: -9.4%
Cc1ccc(CNC(=S)Nc2cc(C)ccc2OC(F)F)cc1	inconclusive: 32.6 µM [activator, single point]	–
Fc1ccc(COc2ccc(Br)cc2CNCC2CCCO2)cc1 (configuration not stated)	–	inactive: 62.1%
Nc1nonc1-n1nnc(C(=O)N/N=C/c2ccc(OCc3ccccc3)cc2)c1COc1ccc(F)cc1	–	inactive: 0.393%
